## Primary screen of a compound library

By UniProt entry, the sequences of proteins in these tests, tags left out.
UniProt E9BF75, entry or part of it: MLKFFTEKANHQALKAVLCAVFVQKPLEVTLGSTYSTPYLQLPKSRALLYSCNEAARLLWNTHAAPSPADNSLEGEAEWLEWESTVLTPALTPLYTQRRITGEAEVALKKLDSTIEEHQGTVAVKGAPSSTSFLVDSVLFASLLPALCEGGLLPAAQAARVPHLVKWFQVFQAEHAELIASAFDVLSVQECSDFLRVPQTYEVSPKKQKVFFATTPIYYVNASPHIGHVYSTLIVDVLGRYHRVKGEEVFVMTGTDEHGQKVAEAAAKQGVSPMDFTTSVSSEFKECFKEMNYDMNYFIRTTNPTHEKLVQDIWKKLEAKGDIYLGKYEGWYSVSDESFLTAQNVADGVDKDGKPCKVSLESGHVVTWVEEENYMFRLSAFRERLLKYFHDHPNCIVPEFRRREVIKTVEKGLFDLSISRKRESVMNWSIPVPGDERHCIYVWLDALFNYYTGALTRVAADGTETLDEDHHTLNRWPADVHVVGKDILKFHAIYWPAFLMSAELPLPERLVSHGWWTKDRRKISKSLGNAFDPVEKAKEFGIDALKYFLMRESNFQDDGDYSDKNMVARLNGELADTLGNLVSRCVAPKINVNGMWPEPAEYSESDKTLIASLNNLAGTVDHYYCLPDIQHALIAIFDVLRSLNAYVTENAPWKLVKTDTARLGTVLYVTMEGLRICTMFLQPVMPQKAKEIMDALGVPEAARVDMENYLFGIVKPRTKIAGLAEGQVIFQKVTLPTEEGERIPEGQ

The values are deposited in ChEMBL (CHEMBL3988442, “University of Dundee, Small-Polar-MMV Screening Library” (2021)).

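Primary screen of methionyl-tRNA synthetase; the read-out is not stated. Target: Methionyl-tRNA synthetase (putative), Leishmania donovani (UniProt E9BF75). The test concentration is not given. The values are filed as inhibition. About 68,000 compounds were tested under these conditions; 0.035% (about 24) showed 50% or more at least once.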

Results are percentages, as filed.
How 0% and 100% were set is not recorded. Most values in the screen are low, and negative values occur.
This is an unselected part of the compounds tested.

{"smiles": "COC(=O)CCn1ccc(=O)c2ccccc21", "Inhibition": 1.657}
{"smiles": "O=C(CCn1cncn1)NCC1CCCC1", "Inhibition": 12.81}
{"smiles": "CC(C)(C)NC(=O)CCOc1cccc(F)c1", "Inhibition": 10}
{"smiles": "CCOc1ccc(CN2CC[C@H]3CC[C@@H](C2)N3)cc1CO", "Inhibition": 15.74}
{"smiles": "CCCc1nc(NCCCOCC)c2c(n1)c(C)nn2CC", "Inhibition": 20.85}
{"smiles": "Cc1ccc(CCC(C)NC2CCN(C(N)=O)CC2)cc1", "stereo": "configuration not stated", "Inhibition": 9.922}
{"smiles": "Cc1noc(C)c1CN1CCCCC1c1nc(-c2ccccc2)no1", "stereo": "configuration not stated", "Inhibition": 4.632}
{"smiles": "CCc1nc(CN(C)CC(=O)N(C)C2CC2)cs1", "Inhibition": 7.494}
{"smiles": "CCc1nc(C)c(CC(=O)N2CCC3(CC2)OCCCC3OC)c(=O)[nH]1", "stereo": "configuration not stated", "Inhibition": 9.756}
{"smiles": "Cc1c(C(=O)NCC2CCN(Cc3c[nH]cn3)C2)[nH]c2ccccc12", "stereo": "configuration not stated", "Inhibition": 7.971}
{"smiles": "CNS(=O)(=O)c1ccc(C(=O)Nc2ccc3c(c2)C(=O)NC3)cc1", "Inhibition": 14.03}
{"smiles": "O=C(c1cccc(F)c1)N1C[C@H]2CCCC(OCc3cccnc3)[C@H]2C1", "stereo": "some centres not stated", "Inhibition": 5.926}
{"smiles": "COc1c(C2SCC(=O)Nc3[nH]ncc32)cc2c(c1OC)OCO2", "stereo": "configuration not stated", "Inhibition": 6.954}
{"smiles": "CN1CCN(C2COC3(CCN(c4ccc(C#N)cc4)CC3)C2)CC1", "stereo": "configuration not stated", "Inhibition": 2.732}
{"smiles": "Cc1noc(C)c1CCC(=O)N[C@@H]1CCC[C@@H](Oc2cccnc2)[C@@H]1O", "Inhibition": 15.75}
{"smiles": "CC(=O)N1CCC(c2nccnc2-c2ccc(C(=O)O)cc2)CC1", "Inhibition": 10.94}
{"smiles": "CCOC(=O)C1CCN(C(=O)Cn2ccc3cc(Br)ccc32)CC1", "Inhibition": 7.884}
{"smiles": "CN(C)Cc1cc(=O)n2c(n1)CN(Cc1ccco1)CCC2", "Inhibition": 17.29}
{"smiles": "CCc1nnc(C(C)N2CCN(CCC(=O)NC3CC3)CC2)o1", "stereo": "configuration not stated", "Inhibition": 3.81}
{"smiles": "Cc1ncnc(NC(CC(C)(C)C)c2cccnc2)c1C", "stereo": "configuration not stated", "Inhibition": 7.035}
{"smiles": "COc1ccc(C(C)N(C)Cc2nc3c(cnn3C)c(=O)[nH]2)cc1", "stereo": "configuration not stated", "Inhibition": 4.127}
{"smiles": "Cc1c(NC(=O)c2cnc[nH]2)cccc1C(=O)NC(C)(C)C", "Inhibition": 5.322}
{"smiles": "Cc1nc2c(c(C)c1CC(=O)Nc1ccccc1F)c(=O)[nH]n2C", "Inhibition": 5.944}
{"smiles": "Cc1cccc(C(=O)N2CCO[C@H]3[C@H](OCCN(C)C)CC[C@@H]32)n1", "Inhibition": 15.23}
{"smiles": "CCn1cc(CNC(=O)CCn2ncc3c(Cl)cccc32)cn1", "Inhibition": -30.4}
{"smiles": "CN(CC(=O)N(C)C(c1cccnc1)c1ccc(F)c(F)c1)C1CC1", "stereo": "configuration not stated", "Inhibition": -4.735}
{"smiles": "Cn1nc(CN2CCOCC2)c2c1CN(C(=O)c1ccc[nH]1)C2", "Inhibition": 13.59}
{"smiles": "COCCN1CCC2(CC1)CN(C(=O)N(C)C)c1ccc(C)cc12", "Inhibition": 10.44}
{"smiles": "CC(=O)N1CC2(CCCN(Cc3ccc(Cl)cc3)C2)Cc2ccccc21", "stereo": "configuration not stated", "Inhibition": 8}
{"smiles": "O=C(Cc1ccccn1)N1CCC(O)(Cn2ccc3ccncc32)CC1", "Inhibition": 18.77}
{"smiles": "CS(=O)(=O)NCc1ccc(C(=O)NCc2ccc3c(c2)CCC3)o1", "Inhibition": 13.92}
{"smiles": "Cc1cc(NC(=O)CN2CCn3c(nnc3C3CC3)C2)on1", "Inhibition": 16.94}
{"smiles": "CC(C)CNC(=O)[C@H]1CCS(=O)(=O)[C@@H]2CN(Cc3cccc(Cl)c3)C[C@H]12", "Inhibition": 7.619}
{"smiles": "Cc1ccc(C2COCCN2C(=O)c2ccc(C#N)cc2)o1", "stereo": "configuration not stated", "Inhibition": 18.04}
{"smiles": "c1cn(-c2cncc(C3CCNCC3)n2)cn1", "Inhibition": 10.93}
{"smiles": "Cc1cc(C)c(CNC(=O)Cc2ccc3c(c2)CCCC3)c(=O)[nH]1", "Inhibition": 25.7}
{"smiles": "CN(C)CCNc1cc(-c2ccccc2C(N)=O)c2cc[nH]c2n1", "Inhibition": 0}
{"smiles": "CCOc1c(Cl)cccc1NS(=O)(=O)c1cc(C)c(C(=O)O)s1", "Inhibition": 7.117}
{"smiles": "NC(=O)c1nnn(-c2ccc(Br)cc2)n1", "Inhibition": 12.75}
{"smiles": "CCOc1ccccc1C(=O)Nc1cccc(C[S+](C)[O-])c1C", "stereo": "configuration not stated", "Inhibition": 6.316}
{"smiles": "COc1cc(S(=O)(=O)N2C[C@@H](C)[C@@](C)(O)C2)c(C)cc1C", "Inhibition": 1.781}
{"smiles": "COc1ccc(C[C@H]2CN(C(=O)c3ncccn3)CC[C@@H]2OC)cc1", "Inhibition": 11.76}
{"smiles": "CC(NCc1cnc(C2CCC2)s1)c1cccc(-n2ccnc2)c1", "stereo": "configuration not stated", "Inhibition": 3.008}
{"smiles": "CCOCC1CN(C(=O)Cc2ccccn2)Cc2cn(C)nc21", "stereo": "configuration not stated", "Inhibition": 6.536}
{"smiles": "Cc1cnn(CCNCC(=O)NCCOc2ccc(Cl)cc2)c1", "Inhibition": 15.43}
{"smiles": "CCc1nc(CNCC2CCCN2c2cc(NC)ncn2)cs1", "stereo": "configuration not stated", "Inhibition": 11.04}
{"smiles": "Cc1cc(C)nc(C2CCN(C(=O)CCn3ncc4ccccc43)C2)n1", "stereo": "configuration not stated", "Inhibition": 7.097}
{"smiles": "CC(C)CC(=O)N1CCCC1c1nccnc1Nc1ncccn1", "stereo": "configuration not stated", "Inhibition": 5.882}
{"smiles": "Cc1ccc(CNCC2Cn3nnc(-c4cnn(C)c4)c3CO2)o1", "stereo": "configuration not stated", "Inhibition": -2.5}
{"smiles": "O=C(NCc1ccoc1)NC1CCN(c2ncccn2)CC1", "Inhibition": 7.311}
{"smiles": "Cc1noc([C@@]23CCO[C@@H]2CCN(C(=O)CN(C)C)C3)n1", "Inhibition": 13.36}
{"smiles": "CN1CCC(c2cccc(C(=O)N(C)C)n2)CC1", "Inhibition": 7.874}

Once more, the final 5:

For CC(C)CC(=O)N1CCCC1c1nccnc1Nc1ncccn1 (configuration not stated) the result was 5.882%.
For Cc1ccc(CNCC2Cn3nnc(-c4cnn(C)c4)c3CO2)o1 (configuration not stated) the result was -2.5%.
For O=C(NCc1ccoc1)NC1CCN(c2ncccn2)CC1 the result was 7.311%.
For Cc1noc([C@@]23CCO[C@@H]2CCN(C(=O)CN(C)C)C3)n1 the result was 13.36%.
For CN1CCC(c2cccc(C(=O)N(C)C)n2)CC1 the result was 7.874%.